Publication PMC11390906

Molecular target: purified human coagulation factor XII (FXII) zymogen (human)
Assay: co-IP; same experiment as a5, for the uPAR-based peptides (300 µM, 1 h pretreatment) and the purified FXII (62 nM, Zn2+ 10 µM, 24 h) added to HKC-8 cells; read out as FXII co-precipitated with uPAR; both purified

| Binder | binding |
| --- | --- |
| DLCNQGNSGRAVTYSRSRY [uPAR-based peptide DL19 (domain 1, residues 96-114)] | binds |
| DVVTHWIQEGEEGRPKDDRH [uPAR-based peptide DV20 (domain 2, residues 146-165)] | binds |

Results are given in words; binding and its absence hold for the method and conditions named. In cells and extracts the contact can be indirect. Binding can be weak; no strength is given.
